# Laboratory results as given in article PMC3180244.
# The chains behind the UniProt entries cited, without tags or fusion partners.
# UniProt Q921E6: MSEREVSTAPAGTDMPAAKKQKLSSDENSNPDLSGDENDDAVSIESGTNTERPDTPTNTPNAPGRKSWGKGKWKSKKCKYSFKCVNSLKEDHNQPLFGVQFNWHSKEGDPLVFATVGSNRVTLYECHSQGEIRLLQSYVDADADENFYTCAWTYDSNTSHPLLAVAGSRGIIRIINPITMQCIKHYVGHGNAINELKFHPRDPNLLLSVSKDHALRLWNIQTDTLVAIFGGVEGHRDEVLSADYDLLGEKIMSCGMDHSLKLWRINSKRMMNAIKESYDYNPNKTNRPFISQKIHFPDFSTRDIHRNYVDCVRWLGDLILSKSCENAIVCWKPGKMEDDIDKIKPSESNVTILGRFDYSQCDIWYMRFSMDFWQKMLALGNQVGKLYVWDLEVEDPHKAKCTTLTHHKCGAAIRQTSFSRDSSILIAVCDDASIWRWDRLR
# UniProt Q80U70: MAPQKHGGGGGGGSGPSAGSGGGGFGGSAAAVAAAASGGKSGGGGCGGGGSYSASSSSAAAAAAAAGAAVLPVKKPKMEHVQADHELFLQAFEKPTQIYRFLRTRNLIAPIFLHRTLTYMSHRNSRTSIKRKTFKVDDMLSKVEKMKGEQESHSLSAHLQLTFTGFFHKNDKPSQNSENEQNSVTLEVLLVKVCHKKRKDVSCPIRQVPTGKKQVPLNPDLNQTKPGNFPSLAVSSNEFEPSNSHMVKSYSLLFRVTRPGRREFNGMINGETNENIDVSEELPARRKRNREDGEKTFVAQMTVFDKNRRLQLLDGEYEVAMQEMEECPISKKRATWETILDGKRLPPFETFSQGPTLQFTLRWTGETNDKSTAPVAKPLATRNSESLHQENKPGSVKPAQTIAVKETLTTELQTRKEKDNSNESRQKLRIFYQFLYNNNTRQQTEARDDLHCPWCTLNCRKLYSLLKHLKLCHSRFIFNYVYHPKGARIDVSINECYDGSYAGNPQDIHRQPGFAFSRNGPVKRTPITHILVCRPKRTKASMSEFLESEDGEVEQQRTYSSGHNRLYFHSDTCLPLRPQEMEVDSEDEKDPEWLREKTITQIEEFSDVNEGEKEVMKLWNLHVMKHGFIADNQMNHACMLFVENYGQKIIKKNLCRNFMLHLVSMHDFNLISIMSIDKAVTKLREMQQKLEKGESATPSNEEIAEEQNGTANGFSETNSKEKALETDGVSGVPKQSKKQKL
# UniProt P70351: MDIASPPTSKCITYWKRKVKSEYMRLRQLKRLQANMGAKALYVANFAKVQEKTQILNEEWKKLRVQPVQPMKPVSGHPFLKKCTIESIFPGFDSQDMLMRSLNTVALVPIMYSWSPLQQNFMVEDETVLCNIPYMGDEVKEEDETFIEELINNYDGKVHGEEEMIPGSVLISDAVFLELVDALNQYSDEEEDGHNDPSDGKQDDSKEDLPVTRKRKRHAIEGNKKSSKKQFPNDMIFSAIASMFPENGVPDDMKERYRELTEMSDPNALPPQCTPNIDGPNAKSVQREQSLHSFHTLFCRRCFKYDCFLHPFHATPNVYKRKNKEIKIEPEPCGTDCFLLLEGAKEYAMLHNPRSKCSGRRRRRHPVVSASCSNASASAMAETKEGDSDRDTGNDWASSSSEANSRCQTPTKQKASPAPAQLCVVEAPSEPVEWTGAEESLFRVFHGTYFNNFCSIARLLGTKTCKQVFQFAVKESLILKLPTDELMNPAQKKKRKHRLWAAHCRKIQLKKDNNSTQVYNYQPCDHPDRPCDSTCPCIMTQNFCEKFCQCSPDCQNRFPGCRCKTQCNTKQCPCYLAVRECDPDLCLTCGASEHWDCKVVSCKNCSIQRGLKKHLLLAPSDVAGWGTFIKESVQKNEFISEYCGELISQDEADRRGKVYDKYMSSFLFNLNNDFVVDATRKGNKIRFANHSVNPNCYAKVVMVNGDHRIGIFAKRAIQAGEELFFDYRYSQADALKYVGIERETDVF
# UniProt Q61188: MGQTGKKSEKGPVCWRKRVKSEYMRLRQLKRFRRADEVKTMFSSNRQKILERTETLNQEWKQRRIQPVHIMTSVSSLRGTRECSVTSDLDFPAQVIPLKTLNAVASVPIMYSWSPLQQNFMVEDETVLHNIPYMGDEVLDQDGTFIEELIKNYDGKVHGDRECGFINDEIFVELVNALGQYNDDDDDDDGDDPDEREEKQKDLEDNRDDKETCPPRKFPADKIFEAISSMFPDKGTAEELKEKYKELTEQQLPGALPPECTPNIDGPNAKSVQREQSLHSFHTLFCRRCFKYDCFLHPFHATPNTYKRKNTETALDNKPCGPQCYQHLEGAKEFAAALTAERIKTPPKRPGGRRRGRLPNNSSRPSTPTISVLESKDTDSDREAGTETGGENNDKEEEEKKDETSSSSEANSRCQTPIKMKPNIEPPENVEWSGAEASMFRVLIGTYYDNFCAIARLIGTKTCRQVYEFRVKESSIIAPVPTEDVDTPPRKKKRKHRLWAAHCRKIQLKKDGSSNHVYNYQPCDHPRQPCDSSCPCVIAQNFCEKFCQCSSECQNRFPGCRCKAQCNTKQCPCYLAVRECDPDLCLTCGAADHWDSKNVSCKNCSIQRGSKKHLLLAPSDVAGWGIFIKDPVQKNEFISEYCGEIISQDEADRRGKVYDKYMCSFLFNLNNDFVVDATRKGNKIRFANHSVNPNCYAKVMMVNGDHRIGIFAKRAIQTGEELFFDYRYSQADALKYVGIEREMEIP
# These are yes or no findings as the source states them, for the method shown. Some results given as binding are weak or reduced against the parent protein; the word gives no strength.
# Assays:
# [1] = biological target: Eed (mouse (endogenous in C2C12)) (UniProt Q921E6); assay: SEC; nuclear extract of C2C12 myotubes (DM, 72 h) immunodepleted of Ezh2 (five serial depletions with AC22 EZH2 antibody on Protein-A beads), Superose 6 PC 3.2/30 in IP (300) buffer; fractions analysed by immunoblot
# [2] = biological target: Eed (mouse (endogenous in C2C12)) (UniProt Q921E6); assay: SEC; nuclear extracts of C2C12 myoblasts (GM) and myotubes (DM, 72 h) on Superose 6 PC 3.2/30 in IP (300) buffer (50 mM Tris-HCl pH 7.5, 300 mM NaCl, 5% glycerol, 0.2% Igepal, 1 mM DTT); fractions analysed by immunoblot
# [3] = biological target: Suz12 (mouse (endogenous in C2C12)) (UniProt Q80U70); assay: SEC; nuclear extract of C2C12 myotubes (DM, 72 h) immunodepleted of Ezh2 (five serial depletions with AC22 EZH2 antibody on Protein-A beads), Superose 6 PC 3.2/30 in IP (300) buffer; fractions analysed by immunoblot
# [4] = biological target: Suz12 (mouse (endogenous in C2C12)) (UniProt Q80U70); assay: SEC; nuclear extracts of C2C12 myoblasts (GM) and myotubes (DM, 72 h) on Superose 6 PC 3.2/30 in IP (300) buffer (50 mM Tris-HCl pH 7.5, 300 mM NaCl, 5% glycerol, 0.2% Igepal, 1 mM DTT); fractions analysed by immunoblot
binding [1],binding [2],binding [3],binding [4],Substance
binds,binds,–,–,Suz12 (from UniProt Q80U70 1-741)
binds,binds,binds,binds,Ezh1 (from UniProt P70351 1-747)
–,binds,–,–,Ezh2 (from UniProt Q61188 1-746)
